Data source: PubChem BioAssay AID1671195 (Yale University, 2021)
This is one part, drawn at random, of about 22,000 reagents tested. In the full data, about 1,510 (6.9%) are marked active. 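Active includes knockdowns raising or lowering LDL uptake; positive z-scores mean more uptake, negative mean less.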 Reagent sequences are not shown.

Purpose: 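Genes whose knockdown alters LDL uptake in liver cancer cells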 (primary screen)
System: human Huh7 hepatoma cells
Reagent: siRNA pool against human genes, 18 nM
Timing: about 2 to 2.5 days of knockdown, then 8 h LDL uptake
Conditions: DiI-labelled LDL at 30 µg/ml for 8 h, in lipoprotein-deficient serum medium
Detection: 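Per-cell DiI-LDL intensity by automated imaging; well means scaled to the plate median and given as a robust z-score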
Reading the numbers: robust z-score: higher = more LDL uptake after knockdown
Call rule: 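Active when two or more replicates show a robust z-score above 2 or below -2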

Gene	robust z-score, replicate 1	robust z-score, replicate 2	robust z-score, replicate 3	call
SPATA4	-0.984	-1.33	-1.31	inactive
CCS	2.48	0.965	1.58	inactive
ZNF311	2.36	2.64	2.47	active
DLK2	1.5	1.85	1.95	inactive
FLG2	1.48	0.949	1.35	inactive
PHKA2	-0.727	-1.05	-0.578	inactive
CCZ1P-OR7E38P	0.235	0.319	0.0808	inactive
SOCS2	-0.457	0.488	-1.35	inactive
PSMC5	2.97	2.44	1.57	active
C6orf52	-0.178	-0.0428	0.175	inactive
TAF8	-2.04	-2.2	-2.53	active
LOC441356 (retired record)	1.37	0.601	0.585	inactive
GABRR1	-1.78	-1.14	-1.62	inactive
PHLDB3	-1.44	-1.22	-1.21	inactive
CHRNA5	0.326	-0.0227	-0.193	inactive
CELSR1	0.523	0.529	0.498	inactive
MYOM3	0.582	-0.815	-0.657	inactive
ASPNAT	0.412	0.194	0.946	inactive
JAM2	0.687	0.279	0.62	inactive
LOC387709 (retired record)	0.0896	0.0254	0.807	inactive
PURPL	-0.336	-0.153	-0.187	inactive
RANBP9	0.616	-0.282	0.392	inactive
LOC613206	1.18	0.858	1.14	inactive
ANXA2	1.11	0.858	0.281	inactive
CC2D2A	-1.47	-1.07	1.01	inactive
CHRDL2	-0.0871	0.389	0.43	inactive
ITPRID1	0.201	0.333	0.0503	inactive
HEMK1	-0.725	-0.918	-0.493	inactive
SDHAF4	-1.46	-0.398	-0.335	inactive
COLGALT1	1.41	1.73	1.95	inactive
WASHC3	1.05	1.88	0.223	inactive
TBL1X	3.79	3.28	4.16	active
ABO	-0.492	0.187	-0.499	inactive
RANBP1	-0.97	-1.91	-0.769	inactive
CHRNE	-2.63	-1.07	-0.19	inactive
GHSR	-1.14	0.0039	-0.688	inactive
LTBP2	-1.17	-1.66	-1.77	inactive
PPFIBP1	-1.02	-0.706	-1.25	inactive
XRCC2	1.19	0.892	1.29	inactive
NARF	0.285	0.659	0.114	inactive
DKFZp686M1136 (retired record)	-1.76	-1.19	-1.07	inactive
PEX16	0.333	1.63	1.01	inactive
GPAT4	-2.08	-1.95	-0.853	active
INMT	0.274	-0.709	-0.65	inactive
NUDT6	-0.99	-0.706	-0.682	inactive
CDNF	0.796	0.544	0.462	inactive
